Measured values as given in patent US20190346442A1, “IMPROVED HLA EPITOPE PREDICTION” (The Broad Institute, Inc., priority 2016, published 2019).
At least one read-out could not be matched to a standard name with certainty.

Molecular target: HLA molecules (HLA-A*01:01,-A*29:02,-B*35:02,-B*51:01,-B*54:01)
Assay: competitive MHC class I allele-binding assay per gel filtration protocol
Set-up: species or system human
Conditions: FIG. 5B legend

YIIEREPLI
experimental validation of binding to HLA molecules (IC50<500 nM): failed experimental validation
